{
  "source": "PubChem BioAssay AID493014",
  "about": "(National Center for Advancing Translational Sciences (NCATS), 2011)",
  "assay": "qHTS Assay to Find Inhibitors of Chronic Active B-Cell Receptor Signaling",
  "conditions": "ABC-DLBCL IkBa-CBG/CBR reporter, luminescence ratio (green luciferase fused to IkBa over red control in TMD8 lymphoma cells), 4 h",
  "summary_of_the_method": "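Compounds up to 46 uM were incubated four hours with TMD8 cells whose green CBG68 luciferase is fused to IkappaBalpha; red CBR luminescence normalised the signal, and concentration-effect curves were fitted to fusion, red and ratio data.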",
  "key": {"[1]": {"conditions": "measured here: CBR red luminescence, cell number"}, "[2]": {"conditions": "measured here: IkBa-CBG green luminescence"}},
  "note": "The other results are listed elsewhere or left out. These are further read-outs of the screen, such as a control signal, another cell line or another target. No call is given for them. Most of these compounds were active or inconclusive in the main read-out, so they are no random draw. The note in brackets gives the kind of curve behind each potency; many fits are weak. Square brackets hold non-standard residues; d marks the D form. Peptide text beside a SMILES is read from it. NMeY = CN[C@@H](Cc1ccc(O)cc1)C(=O)O; NMeF = CN[C@@H](Cc1ccccc1)C(=O)O; 2Abz = Nc1ccccc1C(=O)O",
  "data": [
    {"smiles": "CC1(C)Cc2c(c(N3CCOCC3)nc3snc(Br)c23)CO1", "values": [
      {"measurement": "AC50", "setting": "[1]", "value": "2.82 µM [rising, full curve, poor fit]"}
    ]},
    {"smiles": "CCCCCCCCCC[n+]1cccc2c3ccccc3ccc21", "values": [
      {"measurement": "AC50", "setting": "[1]", "value": "35.5 µM [falling, single point]"}
    ]},
    {"smiles": "Cc1ccc(NC(=O)Cn2cccc2)cc1", "values": [
      {"measurement": "AC50", "setting": "[1]", "value": "11.2 µM [rising, partial curve, poor fit]"}
    ]},
    {"smiles": "COCCNC(=S)NN=C1CCCCCC1", "values": [
      {"measurement": "AC50", "setting": "[1]", "value": "31.6 µM [falling, single point]"},
      {"measurement": "AC50", "setting": "[2]", "value": "25.1 µM [falling, single point]"}
    ]},
    {"smiles": "O=C(COc1ccccc1)Nc1ccc(CSc2ccccc2)cc1", "values": [
      {"measurement": "AC50", "setting": "[1]", "value": "4.47 µM [rising, full curve, poor fit]"}
    ]},
    {"smiles": "CCCc1ccc2oc(C(=O)N(C)Cc3ccn[nH]3)c(C)c2c1", "values": [
      {"measurement": "AC50", "setting": "[1]", "value": "6.31 µM [rising, partial curve]"}
    ]},
    {"smiles": "CCOc1cc(-c2noc(N)c2C(=O)OC)cc(OCC)c1OCC", "values": [
      {"measurement": "AC50", "setting": "[1]", "value": "35.5 µM [falling, partial curve, poor fit]"}
    ]},
    {"smiles": "CCOC(=O)Cc1nnc(Nc2cccc(O)c2)c2ccccc12", "values": [
      {"measurement": "AC50", "setting": "[1]", "value": "23.1 µM [falling, single point]"}
    ]},
    {"smiles": "CC(C)C[C@@H]1NC(=O)[C@H](Cc2ccccc2)N(C)C(=O)[C@H](C)NC(=O)c2ccccc2NC(=O)[C@H](Cc2ccc(O)cc2)N(C)C1=O", "note": "(cyclo([2Abz]A[NMeF]L[NMeY]))", "values": [
      {"measurement": "AC50", "setting": "[1]", "value": "3.55 µM [falling, single point]"}
    ]},
    {"smiles": "c1ccc(CSc2nc3ncccn3n2)cc1", "values": [
      {"measurement": "AC50", "setting": "[1]", "value": "29.1 µM [rising, single point]"}
    ]},
    {"smiles": "CCn1c2c(c(=N)c3c1CCC3)CCCC2", "values": [
      {"measurement": "AC50", "setting": "[1]", "value": "35.5 µM [rising, single point]"}
    ]},
    {"smiles": "CCOc1ccccc1C(=O)NCC(=O)N1CCN(Cc2ccc3c(c2)OCO3)CC1", "values": [
      {"measurement": "AC50", "setting": "[1]", "value": "3.26 µM [rising, partial curve, poor fit]"}
    ]},
    {"smiles": "Cc1[nH]n(-c2ccc([N+](=O)[O-])cc2)c(=O)c1C=NCCN1CCN(C(=O)c2ccccc2)CC1", "values": [
      {"measurement": "AC50", "setting": "[1]", "value": "5.17 µM [falling, full curve, poor fit]"}
    ]},
    {"smiles": "CC(C)n1cc(/C=C/c2cc[n+](C)cc2)c2ccccc21", "values": [
      {"measurement": "AC50", "setting": "[1]", "value": "17.8 µM [falling, single point]"}
    ]},
    {"smiles": "Cc1cc(C)n(-c2ccc(C(=O)Nc3nnc(C)s3)cc2)n1", "values": [
      {"measurement": "AC50", "setting": "[1]", "value": "2.06 µM [falling, full curve, poor fit]"}
    ]},
    {"smiles": "Cc1cc(C(=O)N2CCCC(N3CCN(c4cccc(Cl)c4)CC3)C2)n(C)n1", "note": "(stereo not given)", "values": [
      {"measurement": "AC50", "setting": "[1]", "value": "35.5 µM [falling, single point]"}
    ]},
    {"smiles": "COc1ccc(C)cc1N(C(=O)COc1cccc(F)c1)c1nc2ccccc2s1", "values": [
      {"measurement": "AC50", "setting": "[1]", "value": "11.6 µM [rising, partial curve, poor fit]"}
    ]},
    {"smiles": "O=C(CSc1nnc2sc3ccccc3n12)N1CCN(c2ccccc2)CC1", "values": [
      {"measurement": "AC50", "setting": "[1]", "value": "6.51 µM [rising, single point]"},
      {"measurement": "AC50", "setting": "[2]", "value": "4.11 µM [falling, partial curve, poor fit]"}
    ]},
    {"smiles": "CCOc1cc(C(=O)N/N=C(\\C)Cc2ccc(OC)cc2)cc(OCC)c1OCC", "values": [
      {"measurement": "AC50", "setting": "[1]", "value": "5.8 µM [rising, full curve]"},
      {"measurement": "AC50", "setting": "[2]", "value": "5.8 µM [falling, full curve]"}
    ]},
    {"smiles": "COC(=NC(C)C)NC(C)C", "values": [
      {"measurement": "AC50", "setting": "[1]", "value": "10 µM [rising, partial curve, poor fit]"}
    ]},
    {"smiles": "CCOC(=O)Cc1csc(NC(=O)c2cc(OC)cc(OC)c2)n1", "values": [
      {"measurement": "AC50", "setting": "[1]", "value": "3.66 µM [falling, partial curve]"},
      {"measurement": "AC50", "setting": "[2]", "value": "18.4 µM [rising, partial curve, poor fit]"}
    ]},
    {"smiles": "COc1ccccc1NC(=O)Nc1ccc(-n2ccc(C(F)(F)F)n2)cc1", "values": [
      {"measurement": "AC50", "setting": "[1]", "value": "1.26 µM [falling, full curve, poor fit]"},
      {"measurement": "AC50", "setting": "[2]", "value": "7.08 µM [rising, partial curve, poor fit]"}
    ]},
    {"smiles": "CC1=CN2C(=N)/C(=C/c3ccc(C)o3)C(=O)N=C2S1", "values": [
      {"measurement": "AC50", "setting": "[1]", "value": "8.2 µM [falling, partial curve, poor fit]"},
      {"measurement": "AC50", "setting": "[2]", "value": "16.4 µM [rising, partial curve, poor fit]"}
    ]},
    {"smiles": "COc1ccc(-n2nc(C(=O)NCC(=O)NCCCN3CCOCC3)c3ccccc3c2=O)c(OC)c1", "values": [
      {"measurement": "AC50", "setting": "[1]", "value": "0.447 µM [rising, full curve, poor fit]"}
    ]},
    {"smiles": "CCOc1ccc(NC(=O)CSc2nc3cccnc3n2CC)cc1", "values": [
      {"measurement": "AC50", "setting": "[1]", "value": "3.66 µM [rising, partial curve, poor fit]"}
    ]},
    {"smiles": "O=C(CCNC(=O)c1ccc(Br)cc1)Nc1cc(Cl)ccc1-n1cncn1", "values": [
      {"measurement": "AC50", "setting": "[1]", "value": "1.64 µM [rising, partial curve]"}
    ]},
    {"smiles": "CC(C)n1c(O)c(N=Nc2ccccn2)c2ccccc21", "values": [
      {"measurement": "AC50", "setting": "[1]", "value": "2.91 µM [rising, full curve]"}
    ]},
    {"smiles": "Cc1nc2cc(C(=O)NCc3ccc4c(c3)OCO4)ccc2n1-c1ccc(Br)cc1", "values": [
      {"measurement": "AC50", "setting": "[1]", "value": "29.1 µM [falling, single point]"}
    ]},
    {"smiles": "O=C1CCc2cc(NS(=O)(=O)c3ccc(F)cc3)cc3c2N1CCC3", "values": [
      {"measurement": "AC50", "setting": "[1]", "value": "5.17 µM [falling, full curve, poor fit]"}
    ]},
    {"smiles": "Nc1ccccc1NC(=O)NC(=O)c1ccccc1", "values": [
      {"measurement": "AC50", "setting": "[1]", "value": "11.2 µM [falling, single point]"}
    ]},
    {"smiles": "CCCn1nnc(NC(=O)c2ccccc2Cl)n1", "values": [
      {"measurement": "AC50", "setting": "[1]", "value": "14.1 µM [falling, partial curve]"}
    ]},
    {"smiles": "CCn1c(SCC(=O)Nc2ccc(C)cc2)nc2sc3c(c2c1=O)CCN(C)C3", "values": [
      {"measurement": "AC50", "setting": "[2]", "value": "12.6 µM [falling, partial curve, poor fit]"}
    ]},
    {"smiles": "O=C(N/N=C/c1sc(N2CCCCC2)nc1-c1cccs1)C1CC1", "values": [
      {"measurement": "AC50", "setting": "[1]", "value": "20 µM [falling, partial curve, poor fit]"}
    ]},
    {"smiles": "CC(=O)c1cccc(NS(=O)(=O)c2ccc(C(=O)Nc3ccccc3)cc2)c1", "values": [
      {"measurement": "AC50", "setting": "[1]", "value": "14.1 µM [falling, single point]"}
    ]},
    {"smiles": "CCCOP(=O)(c1ccc(N(C)C)cc1)C(O)c1ccncc1", "note": "(stereo not given)", "values": [
      {"measurement": "AC50", "setting": "[1]", "value": "29.1 µM [rising, single point]"}
    ]},
    {"smiles": "CCOC(=O)C1C(=O)CC(=O)CC1CC(C)SCC", "note": "(stereo not given)", "values": [
      {"measurement": "AC50", "setting": "[1]", "value": "29.1 µM [rising, single point]"}
    ]},
    {"smiles": "CNC(=O)CSc1nc2cc(S(=O)(=O)Nc3ccccc3OC)ccc2o1", "values": [
      {"measurement": "AC50", "setting": "[1]", "value": "10 µM [falling, partial curve, poor fit]"}
    ]},
    {"smiles": "C(=N/Nc1nccs1)/c1cccnc1", "values": [
      {"measurement": "AC50", "setting": "[1]", "value": "31.6 µM [falling, partial curve, poor fit]"}
    ]},
    {"smiles": "O=C(c1ccc(COc2ccc(F)cc2)o1)n1cccn1", "values": [
      {"measurement": "AC50", "setting": "[1]", "value": "11.2 µM [falling, single point]"}
    ]}
  ]
}
